The match of structure and compound is tentative.
Columns and labels:
[1] = target: mPAD4 (Mus musculus, UniProt Q9Z183); assay: mPAD4 RFMS PAD4 inhibition assay; details: mPAD4, RFMS readout, tested form: HCl; for mPAD4 RFMS pIC50: pIC50=−log(IC50); for IC50: read-out: mPAD4 RFMS IC50 μM;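 as to mPAD4 RFMS pIC50: grade E means pIC50 at most 4 and F means pIC50 4.0 to 5.0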
[2] = target: hPAD4 (Homo sapiens, UniProt Q9UM07); assay: hPAD4 RFMS (RapidFire mass spectrometry) PAD4 inhibition assay; details: hPAD4 enzyme, RFMS readout, tested form: HCl; for hPAD4 RFMS pIC50: pIC50=−log(IC50); for IC50: read-out: hPAD4 RFMS IC50 μM;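 as to hPAD4 RFMS pIC50: grade E means pIC50 at most 4 and F means pIC50 4.0 to 5.0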

Protein sequences, listed by entry. Tags and fused reporters are not part of them.
UniProt Q9Z183, whole entry: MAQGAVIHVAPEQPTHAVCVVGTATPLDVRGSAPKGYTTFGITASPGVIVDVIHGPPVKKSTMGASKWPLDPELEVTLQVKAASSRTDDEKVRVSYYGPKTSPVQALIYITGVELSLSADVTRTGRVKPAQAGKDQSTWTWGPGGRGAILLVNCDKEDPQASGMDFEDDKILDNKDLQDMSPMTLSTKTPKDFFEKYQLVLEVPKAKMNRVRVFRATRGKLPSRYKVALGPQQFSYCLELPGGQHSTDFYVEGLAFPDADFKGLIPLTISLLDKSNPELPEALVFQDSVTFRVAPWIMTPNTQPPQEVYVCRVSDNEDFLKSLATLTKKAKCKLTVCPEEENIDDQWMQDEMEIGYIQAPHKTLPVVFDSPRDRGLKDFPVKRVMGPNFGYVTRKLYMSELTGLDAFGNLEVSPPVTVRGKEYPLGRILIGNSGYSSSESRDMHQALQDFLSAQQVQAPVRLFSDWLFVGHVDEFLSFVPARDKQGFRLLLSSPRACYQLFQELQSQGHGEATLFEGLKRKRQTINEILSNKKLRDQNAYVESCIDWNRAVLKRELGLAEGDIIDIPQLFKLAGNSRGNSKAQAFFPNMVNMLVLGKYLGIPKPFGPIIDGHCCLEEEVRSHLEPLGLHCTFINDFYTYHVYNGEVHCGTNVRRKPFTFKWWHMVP
UniProt Q9UM07, whole entry: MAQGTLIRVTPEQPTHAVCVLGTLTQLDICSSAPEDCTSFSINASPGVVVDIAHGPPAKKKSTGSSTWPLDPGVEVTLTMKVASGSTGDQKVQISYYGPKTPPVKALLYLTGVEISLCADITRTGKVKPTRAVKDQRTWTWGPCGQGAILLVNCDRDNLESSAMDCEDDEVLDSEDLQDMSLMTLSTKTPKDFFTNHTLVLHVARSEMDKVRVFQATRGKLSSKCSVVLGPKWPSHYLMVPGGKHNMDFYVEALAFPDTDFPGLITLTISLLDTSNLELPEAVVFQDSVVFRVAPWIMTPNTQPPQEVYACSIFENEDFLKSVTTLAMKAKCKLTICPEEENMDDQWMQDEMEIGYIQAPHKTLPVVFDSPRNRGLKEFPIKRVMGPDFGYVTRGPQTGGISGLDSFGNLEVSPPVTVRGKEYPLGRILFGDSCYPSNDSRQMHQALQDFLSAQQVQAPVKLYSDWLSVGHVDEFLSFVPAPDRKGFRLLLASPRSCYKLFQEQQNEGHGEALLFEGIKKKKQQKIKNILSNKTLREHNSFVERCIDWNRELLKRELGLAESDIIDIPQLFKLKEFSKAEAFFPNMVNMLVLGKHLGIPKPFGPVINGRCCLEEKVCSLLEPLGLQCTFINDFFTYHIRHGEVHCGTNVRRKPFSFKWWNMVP

In the case of `COc1cc(C(=O)N2CC[C@@H]3CCN[C@@H]3C2)cc2nc(-c3cc4cccnc4n3CC(F)(F)F)n(C)c12`, the “mPAD4 RFMS pIC50” value [1] is reported as “G (pIC50 of 5.0-6.0)”, the IC50 [1] is reported as 1 to 5 µM and the “hPAD4 RFMS pIC50” value [2] is reported as “G (pIC50 of 5.0-6.0)”. The IC50 [2] was 1 to 5 µM.

With `COc1cc(C(=O)N2CC[C@H]3CCN[C@H]3C2)cc2nc(-c3cc4cccnc4n3CC(F)(F)F)n(C)c12` the “hPAD4 RFMS pIC50” value [2] was “F (pIC50 of 4.0-5.0)” and the IC50 [2] was > 10 µM.

For `COc1cc(C(=O)N2CCC3CCNC3C2)cc2nc(-c3cc4cccnc4n3CC(F)(F)F)n(C)c12` (stereo not shown), the “mPAD4 RFMS pIC50” value [1] was “G (pIC50 of 5.0-6.0)”, the IC50 [1] was 5 to 10 µM and the “hPAD4 RFMS pIC50” value [2] was “G (pIC50 of 5.0-6.0)”. It also gave an IC50 [2] of 1 to 5 µM.

Source: patent publication US9963448B2, “Bicyclic inhibitors of PAD4” (Padlock Therapeutics, Inc., priority 2015, dated 2018)
